# Laboratory results published in PubChem BioAssay AID504582 (Broad Institute, 2011).
# About 2,300 (0.68%) of roughly 340,000 compounds were called active. This list was built around the results that the source calls inconclusive (neither active nor inactive); the mix of calls is not that of the screen. Cut-off read from the data, not from the text of the source: active = growth rescue above about 28% (passing the limit was not always enough); inconclusive = no clear call, values can overlap the other calls.
# Test: rescue of yeast from PfHsp40 toxicity, primary screen, S. cerevisiae, ATP luminescence (AID 504582);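 note: yeast W303a lacking pdr1 and pdr3 grown in galactose medium; growth measured after three days at 30 °C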
# Conditions: S. cerevisiae expressing PfHsp40, growth rescue, at 12.5 µM, active compounds read high
row,SMILES,growth rescue
1,C#CCOCCOCCOCCNc1nc(N2CCN(C(=O)CCCCCCCCCCNC(=O)[C@H]([C@@H](C)CC)n3cc(CCCCN=C(N)N)nn3)CC2)nc(N2CCN(C(=O)CCCCCCCCCCNC(=O)[C@@H]([C@H](C)O)n3cc(C)nn3)CC2)n1,inconclusive: 30.2%
2,O=C(C[n+]1cccc(Br)c1)c1cccs1,inconclusive: 43.7%
3,Oc1ccc(-c2nc3ccccc3s2)c(O)c1,active: 244%
4,Cc1ccc(NC(=O)COc2ccc3oc4c(c3c2)CCCC4)nc1,inconclusive: 36.8%
5,COc1cc(CC2C(=O)OCC2C(=O)c2ccc3c(c2)OCO3)cc(OC)c1OC (centres undefined),inconclusive: 29.4%
6,O=C(O)c1c[nH]c2ccc(S(=O)(=O)N3CCN(c4ccc(F)cc4)CC3)cc2c1=O,inconclusive: 26.7%
7,O=C(O)/C=C/C(=O)NCc1csc2ccccc12,inactive: 0.197%
8,COc1ccc(C(=O)Nc2nnc(C3=COCCO3)o2)cc1,inactive: -1.04%
9,Cc1ccc(-c2cc(-c3ccccc3Cl)[nH]n2)c(O)c1,active: 136%
10,CC/C(=C(/CC)c1ccc(O)cc1)c1ccc(O)cc1,active: 107%
11,COc1ccc(-n2nc(C#N)c(Cl)cc2=O)cc1,active: 190%
12,O=C(CCl)NCC1CCCO1 (centres undefined),inactive: -0.711%
13,Cc1[nH]c2ccccc2c1N=Nc1ccccc1F,active: 170%
14,COc1ccc(C2CC(O)(c3ccccc3)Oc3cc(OC)c(OC)c(OC)c32)cc1 (centres undefined),inactive: -1.67%
15,CCC(=O)NC(c1ccc(C)cc1)c1ccc2cccnc2c1O (centres undefined),inconclusive: 157%
16,O=C(Nc1ccc2c(c1)CCC2)c1cnn2c1NC(c1ccco1)CC2C(F)(F)F (centres undefined),inconclusive: 27.5%
17,CCOc1ccc(C(Nc2cccnc2)c2cc(Cl)c3cccnc3c2O)cc1 (centres undefined),active: 91.5%
18,O=C1NC(=O)/C(=C/c2cc3c(cc2Br)OCO3)S1,inactive: 18.2%
19,CCCCCCCCC/C(=N\O)c1ccccn1,inconclusive: 204%
20,Cc1ccnc(NC(=O)CCCOc2cc(=O)n(C)c3ccccc23)c1,inactive: -0.292%

row,SMILES,growth rescue
1,COc1ccc(NC2CCCN(C(=O)CN3CCOC3=O)C2)cc1 (centres undefined),inactive: -0.984%
2,Cc1ccnc(NC(c2ccsc2)c2ccc3ccc(C)nc3c2O)c1 (centres undefined),active: 250%
3,CC(=O)NCCc1c(C)n(Cc2ccccc2)c2ccccc12,active: 63.8%
4,Cc1cc(NC(=S)N(Cc2ccc(Cl)cc2)Cc2ccc(C(=O)O)cc2)ccc1Cl,inconclusive: 158%
5,CCCCNC(=O)c1cn(C)c2ccc(S(=O)(=O)N3CCCC3)cc2c1=O,inactive: 0.961%
6,O=C1C=CC(=O)N1c1ccc2c(c1)C(NC(=O)C(F)(F)F)c1ccccc1-2 (centres undefined),inconclusive: 31.1%
7,CC1CCN(c2nnc(-c3cccs3)c3ccccc23)CC1,inconclusive: 31%
8,Cc1ccc2c(c1)C(c1ccccc1)N(C(=O)c1ccc(S(=O)(=O)N3CCOCC3)cc1)CC(=O)N2 (centres undefined),active: 72.7%
9,O=C(C1CC(=O)N(C2CCCCC2)C1)N1CCc2ccccc21 (centres undefined),active: 61%
10,CSc1nc2cc(Oc3cccc(Cl)c3Cl)c(Cl)cc2[nH]1,inconclusive: 58.2%
11,Cc1nc2c(C(=O)N3CCN(c4ccccn4)CC3)cnn2c(C)c1Cc1cccc(Cl)c1,inactive: 2.13%
12,O=C(/C=C/c1cccc(C(F)(F)F)c1)Nc1cccc(C(F)(F)F)c1,active: 83%
13,COc1cc(-c2nc3ccc4ccccc4c3c3c2CCC3)ccc1O,inactive: 22.1%
14,CC(=O)N1N=C(c2ccco2)CC1c1ccc(Cl)o1 (centres undefined),inconclusive: 87.7%
15,Nn1cnnc1N/N=C/c1cc(Br)cc(Br)c1O,inconclusive: 59.5%
16,CCOC(=O)CSc1nc2c(c(=O)n1-c1ccc(OCC)cc1)SCC2,active: 40.4%
17,O=C(NNC(=S)NC(=O)c1ccccc1Cl)c1cccc([N+](=O)[O-])c1,inconclusive: 26.5%
18,CCCCCCCNC(=O)c1ccc(N2CCC3(CC2)OCCO3)c([N+](=O)[O-])c1,inconclusive: 28.1%
19,N#Cc1c(Cl)nsc1NC(=O)c1ccccc1,active: 217%
20,Cc1ccc(Cc2nc(-c3cccnc3)no2)cc1,inactive: -1.86%

# Ordered by number of heavy atoms (rising): part of the list above.
row,SMILES,growth rescue
17,CCOc1ccc(C(Nc2cccnc2)c2cc(Cl)c3cccnc3c2O)cc1 (centres undefined),active: 91.5%
14,COc1ccc(C2CC(O)(c3ccccc3)Oc3cc(OC)c(OC)c(OC)c32)cc1 (centres undefined),inactive: -1.67%
11,Cc1nc2c(C(=O)N3CCN(c4ccccn4)CC3)cnn2c(C)c1Cc1cccc(Cl)c1,inactive: 2.13%

# (listing goes on)

row,SMILES,growth rescue
1,CC(C(=O)Nc1ccc(S(=O)(=O)N2CCCC2)cc1)N1CCCC(C(N)=O)C1 (centres undefined),inactive: 1.38%
2,Cc1cccc(Oc2ncnc(N)c2[N+](=O)[O-])c1C,inactive: -1.51%
3,O=C(O)/C=C/c1cnn(-c2ccccc2)c1,inconclusive: 57.9%
4,CCOC(=O)C1CCN(C(=O)Nc2ccc3nccnc3c2)CC1,inactive: -0.712%
5,Cc1ccc(/C=C/S(=O)(=O)NCC(=O)OCC(=O)N2CC(=O)Nc3ccccc32)cc1,inconclusive: 30.3%
6,COc1ccc(-c2c(-c3ccc(OC)c(C)c3O)n[nH]c2C)cc1,inconclusive: 32.9%
7,Cc1sc(NC(=O)COc2cccc(-n3cnnn3)c2)c(C#N)c1C,inactive: 2.23%
8,COc1ccc(C(C)NC(=O)CCc2ccccc2)cc1 (centres undefined),inactive: -1.86%
9,CC(=O)OCC(=O)[C@H]1CC[C@H]2[C@@H]3CCC4=CC(=O)CC[C@]4(C)[C@H]3CC[C@]12C,inconclusive: 51.1%
10,COc1ccccc1/C=N/NC(=O)C(=O)N1CCN(c2ccccc2OC)CC1,inconclusive: 28.3%
11,Cc1ccc(C)c(NC(=O)C2(C)CC3c4ccccc4C2c2ccccc23)c1 (centres undefined),inconclusive: 43.5%
12,O=Cc1ccc(O)c2ncccc12,active: 628%
13,O=C(O)/C=C/C(=O)NNC(=O)c1cc(-c2ccccc2)n[nH]1,inconclusive: 26%
14,Cc1noc(C(=O)NCc2cccnc2)c1Cl,inconclusive: 82.1%
15,c1nc2sc3c(c2c2nnnn12)CCC3,inactive: 0.229%
16,COC(=O)CC1=NN(c2ccccc2)C(=O)/C1=C\c1ccc(OC)cc1,inconclusive: 29.3%
17,Cc1nn(-c2ccccc2Cl)c(Cl)c1/C=N/Nc1nc2ccccc2s1,inconclusive: 33.8%
18,Cc1cc(C(=O)Nc2nc(-c3ccccn3)cs2)ccc1[N+](=O)[O-],active: 73.5%
19,S=C(Nc1cccc2ccccc12)N1CCN(c2ncccn2)CC1,inactive: -0.496%
